The source of these data is paper doi:10.1101/2021.01.08.425994.

These are yes or no findings as the source states them, for the method shown. Binding seen in cells or lysates may run through a third protein. Binding can be weak; no strength is given.

This assay has as its target T1, human FBXL3 (human) (UniProt Q9UKT7).
T1 sequence: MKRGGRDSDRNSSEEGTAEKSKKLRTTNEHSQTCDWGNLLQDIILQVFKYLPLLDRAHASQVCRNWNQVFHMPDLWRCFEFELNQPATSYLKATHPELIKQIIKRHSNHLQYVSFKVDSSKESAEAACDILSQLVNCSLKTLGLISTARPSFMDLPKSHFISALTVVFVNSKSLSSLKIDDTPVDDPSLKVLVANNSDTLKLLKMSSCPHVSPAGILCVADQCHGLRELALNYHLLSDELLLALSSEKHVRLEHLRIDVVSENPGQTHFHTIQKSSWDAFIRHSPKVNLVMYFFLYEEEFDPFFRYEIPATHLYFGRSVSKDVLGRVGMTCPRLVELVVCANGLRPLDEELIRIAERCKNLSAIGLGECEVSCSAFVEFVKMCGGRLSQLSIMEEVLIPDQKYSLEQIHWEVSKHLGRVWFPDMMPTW
Put plainly: co-IP.
For the substance human CRY2 D347H, the binding result is on record as “binds”.
As for human CRY2 D467N, the entry is “binds”; as for human CRY2 R460C, “binds”; as for human CRY2 S436R, “binds”.
On to human CRY2 wildtype, for which the binding result is “binds”.
